# Results: patent publication US20060135589A1, “1h-Indazole-3-carboxamide compounds as cyclin dependent kinase (cdk) inhibitors” (Astex Technology, Inc., priority 2002, published 2006)
# Some entries share one result that the patent states for a list of compounds.
# Target: T1, CDK2/CyclinA (Homo sapiens, UniProt P24941)
# T1 construct: purchased Upstate Biotechnology
# Test: Measurement of CDK2 kinase inhibitory activity (IC50), 33P-ATP / histone H1 filter assay
# Format: biochemical
# Details: read-out: IC50 (concentration of test compound required to inhibit 50% of the CDK2 activity); stated as an alternative: IC50 less than 100 μM OR at least 50% inhibition at 50 μM
# Protocol: Measurement of CDK2 Kinase Inhibitory Activity (IC50)
# Compounds of the invention were tested for kinase inhibitory activity using the following protocol.
# 1.7 μl of active CDK2/CyclinA (Upstate Biotechnology, 10 U/μl) is diluted in assay buffer (250 μl of 10× strength assay buffer (200 mM MOPS pH 7.2, 250 mM β-glycerophosphate, 50 mM EDTA, 150 mM MgCl2), 11.27 μl 10 mM ATP, 2.5 μl 1M DTT, 25 μl 100 mM sodium orthovanadate, 708.53 μl H2O), and 10 μl mixed with 10 μl of histone substrate mix (60 μl bovine histone H1 (Upstate Biotechnology, 5 mg/ml), 940 μl H2O, 35 μCi γ^33P-ATP) and added to 96 well plates along with 5 μl of various dilutions of the test compound in DMSO (up to 2.5%). The reaction is allowed to proceed for 5 hours before being stopped with an excess of ortho-phosphoric acid (30 μl at 2%).
# γ^33P-ATP which remains unincorporated into the histone H1 is separated from phosphorylated histone H1 on a Millipore MAPH filter plate. The wells of the MAPH plate are wetted with 0.5% orthophosphoric acid, and then the results of the reaction are filtered with a Millipore vacuum filtration unit through the wells. Following filtration, the residue is washed twice with 200 μl of 0.5% orthophosphoric acid. Once the filters have dried, 25 μl of Microscint 20 scintillant is added, and then counted on a Packard Topcount for 30 seconds.
row,Structure (SMILES),IC50
1,"O=C(Nc1cccc(-c2nnn[nH]2)c1)c1n[nH]c2ccccc12 [Example 4, N-[3-(1H-tetrazol-5-yl)phenyl]-1H-indazole-3-carboxamide]",< 100 µM
2,"CC(=O)NCc1ccc(NC(=O)c2n[nH]c3ccccc23)cc1 [Example 5, N-[4-(acetylaminomethyl)phenyl]-1H-indazole-3-carboxamide]",< 100 µM
3,"O=C(Nc1ccc(N2CCCC2=O)cc1)c1n[nH]c2ccccc12 [Example 6, N-[4-(2-oxopyrrolidin-1-yl)phenyl]-1H-indazole-3-carboxamide]",< 100 µM
4,"O=C(Nc1cccc(-c2cnco2)c1)c1n[nH]c2ccccc12 [Example 7, N-[3-(oxazol-5-yl)phenyl)-1H-indazole-3-carboxamide]",< 100 µM
5,"O=C(Nc1ccc(-c2c[nH]cn2)cc1)c1n[nH]c2ccccc12 [Example 8, N-[4-(1H-imidazol-4-yl)phenyl]-1H-indazole-3-carboxamide]",< 100 µM
6,"CS(=O)(=O)c1cccc(NC(=O)c2n[nH]c3ccccc23)c1 [Example 9, N-[3-methanesulphonylphenyl]-1H-indazole-3-carboxamide]",< 100 µM
7,"O=C(Nc1ccc(S(=O)(=O)N2CCOCC2)cc1)c1n[nH]c2ccccc12 [Example 10, N-[4-(morpholine-4-sulphonyl)phenyl]-1H-indazole-3-carboxamide]",< 100 µM
8,"O=C(Nc1ccccc1)c1n[nH]c2ccc(I)cc12 [Example 11, N-phenyl-5-iodo-1H-indazole-3-carboxamide]",< 100 µM
9,"NS(=O)(=O)c1ccc(NC(=O)c2n[nH]c3ccc(I)cc23)cc1 [Example 12, N-(4-aminosulphonylphenyl)-5-iodo-1H-indazole-3-carboxamide]",< 100 µM
10,CNS(=O)(=O)Cc1ccc(NC(=O)c2n[nH]c3ccc(I)cc23)cc1 [Example 13],< 100 µM
11,"CS(=O)(=O)c1cccc(NC(=O)c2n[nH]c3ccc(I)cc23)c1 [Example 14, N-(3-methanesulphonylphenyl)-5-iodo-1H-indazole-3-carboxamide]",< 100 µM
12,"CC(=O)NCc1ccc(NC(=O)c2n[nH]c3ccc(I)cc23)cc1 [Example 15, N-[4-(acetylaminomethyl)phenyl]-5-iodo-1H-indazole-3-carboxamide]",< 100 µM
13,"O=C(Nc1ccc([N+](=O)[O-])cn1)c1n[nH]c2ccc(I)cc12 [Example 16, N-(5-nitro-pyridin-2-yl)-5-Iodo-1H-indazole-3-carboxamide]",< 100 µM
14,"O=C(Nc1ccccc1)c1n[nH]c2ccc(N3CCOCC3)cc12 [Example 17, 5-Morpholin-4-yl-1H-indazole-3-carboxylic acid phenylamide]",< 100 µM
15,"NS(=O)(=O)c1ccc(NC(=O)c2n[nH]c3ccc([N+](=O)[O-])cc23)cc1 [Example 18, 5-Nitro-1H-indazole-3-carboxylic acid (4-sulphamoyl-phenyl)-amide]",< 100 µM
16,"CNS(=O)(=O)Cc1ccc(NC(=O)c2n[nH]c3ccc([N+](=O)[O-])cc23)cc1 [Example 19, 5-Nitro-1H-indazole-3-carboxylic acid (4-methylsulphamoylmethyl-phenyl)-amide]",< 100 µM
17,"CNS(=O)(=O)Cc1ccc(NC(=O)c2n[nH]c3ccc(-c4cccs4)cc23)cc1 [Example 21, 5-Thiophen-2-yl-1H-indazole-3-carboxylic acid (4-methylsulphamoylmethyl-phenyl)-amide]",< 100 µM
18,"CNS(=O)(=O)Cc1ccc(NC(=O)c2n[nH]c3ccc(-c4c(C)noc4C)cc23)cc1 [Example 22, 5-(3,5-Dimethyl-isoxazol-4-yl)-1H-indazole-3-carboxylic acid (4-methylsulphamoylmethyl-phenyl)-amide]",< 100 µM
19,"CNS(=O)(=O)Cc1ccc(NC(=O)c2n[nH]c3ccc(-c4ccco4)cc23)cc1 [Example 23, 5-Furan-2-yl-1H-indazole-3-carboxylic acid (4-methylsulphamoylmethyl-phenyl)-amide]",< 100 µM
20,"CNS(=O)(=O)Cc1ccc(NC(=O)c2n[nH]c3ccc(-c4cc5ccccc5o4)cc23)cc1 [Example 24, 5-Benzofuran-2-yl-1H-indazole-3-carboxylic acid (4-methylsulphamoylmethyl-phenyl)-amide]",< 100 µM

row,Structure (SMILES),IC50
1,"CNS(=O)(=O)Cc1ccc(NC(=O)c2n[nH]c3ccc(Cl)cc23)cc1 [Example 25, 5-Chloro-1H-indazole-3-carboxylic acid (4-methylsulphamoylmethyl-phenyl)-amide]",< 100 µM
2,"O=C(Nc1ccc(Cl)nc1)c1n[nH]c2ccccc12 [Example 28, 1H-Indazole-3-carboxylic acid (6-chloro-pyridin-3-yl)-amide]",< 100 µM
3,"CNS(=O)(=O)Cc1ccc(NC(=O)c2n[nH]c3ccc(-c4nccs4)cc23)cc1 [Example 29, 5-Thiazol-2-yl-1H-indazole-3-carboxylic acid (4-methylsulphamoylmethyl-phenyl)-amide]",< 100 µM
4,O=C(Nc1ccc(S(=O)(=O)Nc2nccs2)cc1)c1n[nH]c2ccccc12 [Example 31],< 100 µM
5,CNS(=O)(=O)Cc1ccc(NC(=O)c2n[nH]c3ccc(-c4ccccc4)cc23)cc1 [Example 32],< 100 µM
6,CS(=O)(=O)NCc1ccc(NC(=O)c2n[nH]c3ccc([N+](=O)[O-])cc23)cc1 [Example 33],< 100 µM
7,CCOC(=O)N1CCC(NC(=O)c2n[nH]c3ccc([N+](=O)[O-])cc23)CC1 [Example 34],< 100 µM
8,CCCCNC(=O)NS(=O)(=O)c1ccc(NC(=O)c2n[nH]c3ccccc23)cc1 [Example 35],< 100 µM
9,N=C(N)NS(=O)(=O)c1ccc(NC(=O)c2n[nH]c3ccccc23)cc1 [Example 36],< 100 µM
10,O=C(NC1CCN(Cc2ccccc2)C1)c1n[nH]c2ccc(Cl)cc12 (stereo not shown) [Example 37],< 100 µM
11,CCOC(=O)N1CCC(NC(=O)c2n[nH]c3ccc(Cl)cc23)CC1 [Example 38],< 100 µM
12,COc1ccc(NC(=O)c2n[nH]c3ccc(I)cc23)cn1 [Example 39],< 100 µM
13,O=C(Nc1cccnc1)c1n[nH]c2ccc(I)cc12 [Example 40],< 100 µM
14,O=C(Nc1cnc2ccccc2c1)c1n[nH]c2ccc(I)cc12 [Example 41],< 100 µM
15,O=C(NC1CCOCC1)c1n[nH]c2ccc(Cl)cc12 [Example 42],< 100 µM
16,CN1CCC(NC(=O)c2n[nH]c3ccc(Cl)cc23)CC1 [Example 43],< 100 µM
17,O=C(Nc1cccnc1Cl)c1n[nH]c2ccc(I)cc12 [Example 44],< 100 µM
18,O=C(NCc1ccccc1)c1n[nH]c2ccc(Cl)cc12 [Example 45],< 100 µM
19,CN1CCN(c2ccc(CNC(=O)c3n[nH]c4ccc(Cl)cc34)cc2)CC1 [Example 46],< 100 µM
20,O=C(Nc1cccnc1)c1n[nH]c2ccc(Cl)cc12 [Example 47],< 100 µM

row,Structure (SMILES),IC50
1,N#Cc1ccc(NC(=O)c2n[nH]c3ccc(I)cc23)cn1 [Example 48],< 100 µM
2,O=C(Nc1ccccc1)c1n[nH]c2ccc(Cl)cc12 [Example 49],< 100 µM
3,Cc1ccc(NC(=O)c2n[nH]c3ccc(I)cc23)nn1 [Example 50],< 100 µM
4,CCc1nnc(NC(=O)c2n[nH]c3ccc(Cl)cc23)s1 [Example 51],< 100 µM
5,O=C(Nc1ccc(N2CCOCC2)cc1)c1n[nH]c2ccc(I)cc12 [Example 52],< 100 µM
6,O=C(Nc1ccc[nH]c1=O)c1n[nH]c2ccc(I)cc12 [Example 53],< 100 µM
7,O=C(Nc1ccc(N2CCOCC2)cc1)c1n[nH]c2ccccc12 [Example 54],< 100 µM
8,O=C(Nc1ccccc1)c1n[nH]c2ccc([N+](=O)[O-])cc12 [Example 55],< 100 µM
9,O=C(Nc1ccc(Cl)nc1)c1n[nH]c2ccc(I)cc12 [Example 56],< 100 µM
10,CC(C)(C)OC(=O)N1CCC(NC(=O)c2n[nH]c3ccccc23)CC1 [Example 57],< 100 µM
11,O=C(Nc1ccc(F)cc1)c1n[nH]c2ccc(I)cc12 [Example 58],< 100 µM
12,CC(=O)Nc1ccc(NC(=O)c2n[nH]c3ccc(I)cc23)cn1 [Example 59],< 100 µM
13,"Nc1ccc2[nH]nc(C(=O)Nc3ccccc3)c2c1 [Example 60, 5-Amino-1H-indazole-3-carboxylic acid phenylamide]",< 100 µM
14,"O=C(NC1CCNCC1)c1n[nH]c2ccc(I)cc12 [Example 64, 5-Iodo-1H-indazole-3-carboxylic acid piperidin-4-ylamide]",< 100 µM
15,"CC(=O)NCc1ccc(NC(=O)c2n[nH]c3ccc(Cl)cc23)cc1 [Example 65, 5-Chloro-1H-indazole-3-carboxylic acid [4-(acetylamino-methyl)-phenyl]-amide]",< 100 µM
16,"O=C(NC1CCN(C(=O)C(F)(F)F)CC1)c1n[nH]c2ccccc12 [Example 66, 1H-Indazole-3-carboxylic acid [1-(2,2,2 trifluoro-acetyl)-Piperidin-4-yl]-amide]",< 100 µM
17,"O=C(NC1CCNCC1)c1n[nH]c2ccccc12 [Example 67, 1H-Indazole-3-carboxylic acid piperidin-4-ylamide]",< 100 µM
18,"CC(=O)N1CCC(NC(=O)c2n[nH]c3ccccc23)CC1 [Example 68, 1H-Indazole-3-carboxylic acid (1-acetyl-piperidin-4-yl)-amide]",< 100 µM
